# Laboratory results as given in the supplement of paper PMC12889115.
# The list shows a part of the results. These are raw signals, not scaled to a control.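 Primary screen: polymyxin B was added at a level permeabilizing Salmonella outer membranes while sparing inner membranes. DMSO wells, both with and without polymyxin B, established maximum growth. Plate-to-plate variation meant each plate was ranked on its own, and the lowest-OD600 compounds were selected as hits.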
# System: Salmonella enterica serovar Typhimurium SL1344
# Experiment: bacterial growth OD600 after 18 h with compound and polymyxin B; higher = more bacterial growth (less inhibition)
# Details: 50 µM, Mueller-Hinton broth
SMILES,bacterial growth OD600 (polymyxin B 1 µg/mL),bacterial growth OD600 (polymyxin B 0.75 µg/mL)
CSc1nc(C(=O)N2CCc3[nH]nc(-c4ccccc4F)c3C2)cs1,0.826,–
Cc1ccccc1CCC1CCCN(C(=O)C2CCOCC2)C1 (centres undefined),0.856,–
CN(CC1COc2ccccc2O1)c1ccc(-c2nc(C3CC3)no2)cn1 (centres undefined),1.04,–
O=C(NCCn1cccn1)c1cc(COc2ccccc2F)[nH]n1,0.903,–
Cc1nc2ccccc2n1Cc1cc(C(=O)N(C)C(C)c2ccon2)n[nH]1 (centres undefined),0.92,–
OCc1ccc(CN2CCc3[nH]nc(C(c4ccccc4)c4ccccc4)c3C2)o1,–,0.847
COCC1CCN(C(=O)CCc2nnc(C3(c4ccc(Cl)cc4)CCC3)o2)C1 (centres undefined),0.783,–
Cc1c(C(C)NCc2ccc(OC(C)C)c(CO)c2)cnn1-c1ccccc1 (centres undefined),0.933,–
COc1ccc(-c2ncc(CN3CCC(CO)(Cc4cccc(OC)c4)CC3)cn2)cc1,0.965,–
Cc1ccccc1-n1ncc(C(C)NC(=O)Nc2ccccc2F)c1C (centres undefined),0.902,–
COc1ccc(CN2CCN(Cc3cnc(C)s3)CC2CCO)cc1C (centres undefined),1.09,–
O=C(NC1CCCC1)c1cc(CN2CCOCC2)on1,1.02,–
C=CCNc1ccc(C(=O)NCc2nc(CC)cs2)cn1,0.913,–
COCCO[C@H]1[C@H](NC(=O)C(C)C)c2ccccc2C12CCN(C(=O)c1cc(C(C)C)nn1C)CC2,–,0.91
O=C(Cn1nnnc1CN1CCCC1)N1CCN(c2ccc(F)cc2)CC1,–,0.726
O=C(CCC1CCN(C(=O)CC2CCC(=O)N2)CC1)NCc1cccc(Cl)c1 (centres undefined),–,0.79
O=C1O[C@@H]2CN(c3nc4ccccc4s3)C[C@@H]2N1Cc1ccccn1,1.14,–

SMILES,bacterial growth OD600 (polymyxin B 1 µg/mL),bacterial growth OD600 (polymyxin B 0.75 µg/mL)
Nc1ncc(CN2CCCC(CNC(=O)c3cccc4ccccc34)C2)cn1 (centres undefined),–,0.855
C=CCN1C(=O)CCC1CCNCCOc1ccc(F)cc1 (centres undefined),–,1.02
CN(C)c1ncccc1CNCc1cccc(OC2CCCC2)c1,0.935,–
O=C1N(Cc2ccc(F)c(F)c2)CCCC1(O)CNCc1cccnc1 (centres undefined),1,–
Cn1ccnc1CN1CCN(c2nc3nonc3nc2NCc2cccs2)CC1,0.958,–
Cc1ccc(CN(C)C(=O)C2CCC(=O)N(C3CCCCCC3)C2)cc1 (centres undefined),0.58,–
CCN(CC)C(=O)c1coc(COc2cccc(F)c2)n1,1.06,–
COc1ccc(CN2CCN(Cc3cnn(C)c3)CC2CCO)cc1C (centres undefined),–,0.824
CCc1ccc(CN(C)c2nncc(-c3cccc(F)c3)n2)cc1,–,-0.004
O=C(CCCc1ccc(Cl)cc1)N1CCOc2ccc(CN3CCCC3)cc2C1,–,0.55
O=C(c1ccc(OC2CCN(Cc3c[nH]c4ccccc34)CC2)cc1)N1CCCC1,–,0.626
Cc1cccc(-c2cccc(NC(=O)C3CCCN3Cc3[nH]cnc3C)c2)c1 (centres undefined),–,0.814
COc1ccc(CN2CCN(Cc3ccc(O)cc3)CC2CCO)c(C)c1C (centres undefined),0.936,–
CCC(Nc1ccc(-c2nc(COc3ccccc3)no2)cn1)c1ccncc1 (centres undefined),0.01,–
COc1ccc(-c2cc(F)cc3c2OC(CNC(=O)c2cccc(Cn4nc(C)cc4C)c2)C3)nn1 (centres undefined),–,0.98
COc1ccccc1C(=O)Nc1ccnn1C1CCN(C(=O)c2ccccn2)CC1,0.944,–
OCC1CCCCN1Cc1cn(Cc2ccccc2)nc1-c1ccc2c(c1)OCO2 (centres undefined),–,0.91

# Given bar-delimited: part of the list above
SMILES | bacterial growth OD600 (polymyxin B 1 µg/mL) | bacterial growth OD600 (polymyxin B 0.75 µg/mL)
C=CCN1C(=O)CCC1CCNCCOc1ccc(F)cc1 (centres undefined) | – | 1.02
Cc1cccc(-c2cccc(NC(=O)C3CCCN3Cc3[nH]cnc3C)c2)c1 (centres undefined) | – | 0.814
